Laboratory results reported in paper PMC10104629.
Results are given in words; binding and its absence hold for the method and conditions named. In cells and extracts the contact can be indirect. Some binding calls cover weakened binding; strength is not graded here.

The chains behind the UniProt entries cited, without tags or fusion partners.
UniProt P43268: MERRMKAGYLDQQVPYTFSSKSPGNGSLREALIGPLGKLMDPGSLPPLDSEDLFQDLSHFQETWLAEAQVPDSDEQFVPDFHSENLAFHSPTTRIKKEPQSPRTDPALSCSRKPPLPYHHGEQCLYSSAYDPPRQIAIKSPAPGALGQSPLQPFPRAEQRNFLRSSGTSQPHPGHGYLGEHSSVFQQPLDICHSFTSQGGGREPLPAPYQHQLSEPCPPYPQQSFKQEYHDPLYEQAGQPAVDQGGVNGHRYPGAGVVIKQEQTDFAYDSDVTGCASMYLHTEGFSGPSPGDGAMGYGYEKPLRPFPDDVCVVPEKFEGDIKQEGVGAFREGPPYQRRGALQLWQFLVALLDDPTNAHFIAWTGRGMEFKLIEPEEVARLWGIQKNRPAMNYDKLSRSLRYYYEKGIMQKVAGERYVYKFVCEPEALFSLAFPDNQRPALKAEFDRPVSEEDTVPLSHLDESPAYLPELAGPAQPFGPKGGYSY

Biological target: FLAG-ETV4 WT (human) (UniProt P43268)
Assay: co-IP; lysates of UM-UC-3 cells stably transfected with empty vector, ETV4 WT or Y392F; immunoprecipitation with anti-FLAG, anti-PTK6 or control IgG at 4 °C overnight, Dynabeads Protein A, immunoblot with anti-FLAG or anti-PTK6

binding: binds
Substance: Tyrosine kinase PTK6 (from UniProt Q13882 1-451) (enzyme)
